Values as published with doi:10.1371/journal.pone.0140310, rounded.

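The test systems are human melanoma cell lines, treated with a pair of drugs for 72 h and then stained and imaged. Each value is the count of nuclei relative to DMSO-treated wells, in %, so that 100 equals the control. Every drug was used at one fixed concentration, the higher of two screened. These are primary screening values without error estimates.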 An unselected part of the screen is shown. A dash means that no value is listed here.

Every entry is a combination with etoposide at 100 nM: COc1cc([C@@H]2c3cc4c(cc3[C@@H](O[C@@H]3O[C@@H]5CO[C@@H](C)O[C@H]5[C@H](O)[C@H]3O)[C@H]3COC(=O)[C@H]23)OCO4)cc(OC)c1O

Drugs:
SNS-032 (50 nM): CC(C)(C)c1cnc(CSc2cnc(NC(=O)C3CCNCC3)s2)o1
gemcitabine (2 nM): Nc1ccn([C@@H]2O[C@H](CO)[C@@H](O)C2(F)F)c(=O)n1
nilutamide (5000 nM): CC1(C)NC(=O)N(c2ccc([N+](=O)[O-])c(C(F)(F)F)c2)C1=O
sunitinib (2000 nM): CCN(CC)CCNC(=O)c1c(C)[nH]c(/C=C2\C(=O)Nc3ccc(F)cc32)c1C
everolimus (100 nM): CO[C@H]1C[C@@H]2CC[C@@H](C)[C@@](O)(O2)C(=O)C(=O)N2CCCC[C@H]2C(=O)O[C@H]([C@H](C)C[C@@H]2CC[C@@H](OCCO)[C@H](OC)C2)CC(=O)[C@H](C)/C=C(\C)[C@@H](O)[C@@H](OC)C(=O)[C@H](C)C[C@H](C)/C=C/C=C/C=C/1C
ZM336372 (10000 nM): Cc1ccc(NC(=O)c2cccc(N(C)C)c2)cc1NC(=O)c1ccc(O)cc1
MK-1775 (100 nM): C=CCn1c(=O)c2cnc(Nc3ccc(N4CCN(C)CC4)cc3)nc2n1-c1cccc(C(C)(C)O)n1
SU6656 (2000 nM): CN(C)S(=O)(=O)c1ccc2c(c1)/C(=C/c1cc3c([nH]1)CCCC3)C(=O)N2
perifosine (2000 nM): CCCCCCCCCCCCCCCCCCOP(=O)([O-])OC1CC[N+](C)(C)CC1
Src-I1 (10000 nM): COc1cc2ncnc(Nc3ccc(Oc4ccccc4)cc3)c2cc1OC
PF-04217903 (5000 nM): OCCn1cc(-c2cnc3nnn(Cc4ccc5ncccc5c4)c3n2)cn1
pioglitazone (10000 nM): CCc1ccc(CCOc2ccc(CC3SC(=O)NC3=O)cc2)nc1 (configuration not stated)
FK866 (50 nM): O=C(/C=C/c1cccnc1)NCCCCC1CCN(C(=O)c2ccccc2)CC1
CX-4945 (2000 nM): O=C(O)c1ccc2c(c1)nc(Nc1cccc(Cl)c1)c1ccncc12
veliparib (7000 nM): C[C@]1(c2nc3c(C(N)=O)cccc3[nH]2)CCCN1
CP-690550 (5000 nM): C[C@@H]1CCN(C(=O)CC#N)C[C@@H]1N(C)c1ncnc2[nH]ccc12
pazopanib (2000 nM): Cc1ccc(Nc2nccc(N(C)c3ccc4c(C)n(C)nc4c3)n2)cc1S(N)(=O)=O
PLX4720 (400 nM): CCCS(=O)(=O)Nc1ccc(F)c(C(=O)c2c[nH]c3ncc(Cl)cc23)c1F
BI-D1870 (1000 nM): CC(C)CCN1c2nc(Nc3cc(F)c(O)c(F)c3)ncc2N(C)C(=O)C1C (configuration not stated)
GW441756 (2000 nM): Cn1cc(/C=C2\C(=O)Nc3cccnc32)c2ccccc21
vorinostat (400 nM): O=C(CCCCCCC(=O)Nc1ccccc1)NO
GSK650394 (800 nM): O=C(O)c1ccc(-c2c[nH]c3ncc(-c4ccccc4)cc23)cc1C1CCCC1
midostaurin (400 nM): CO[C@@H]1[C@H](N(C)C(=O)c2ccccc2)C[C@H]2O[C@]1(C)n1c3ccccc3c3c4c(c5c6ccccc6n2c5c31)C(=O)NC4
FH535 (5000 nM): Cc1cc([N+](=O)[O-])ccc1NS(=O)(=O)c1cc(Cl)ccc1Cl
docetaxel (0.5 nM): CC(=O)O[C@@]12CO[C@@H]1C[C@H](O)[C@@]1(C)C(=O)[C@H](O)C3=C(C)[C@@H](OC(=O)[C@H](O)[C@@H](NC(=O)OC(C)(C)C)c4ccccc4)C[C@@](O)([C@@H](OC(=O)c4ccccc4)[C@H]21)C3(C)C
OSU-03012 (5000 nM): NCC(=O)Nc1ccc(-n2nc(C(F)(F)F)cc2-c2ccc3c(ccc4ccccc43)c2)cc1
PD173074 (500 nM): CCN(CC)CCCCNc1ncc2cc(-c3cc(OC)cc(OC)c3)c(NC(=O)NC(C)(C)C)nc2n1
NVP-BEZ235 (20 nM): Cn1c(=O)n(-c2ccc(C(C)(C)C#N)cc2)c2c3cc(-c4cnc5ccccc5c4)ccc3ncc21
GW2580 (5000 nM): COc1ccc(COc2ccc(Cc3cnc(N)nc3N)cc2OC)cc1
L-779450 (1000 nM): Oc1cc(-c2nc(-c3ccccc3)[nH]c2-c2ccncc2)ccc1Cl

Second drug,C32,COLO 800,COLO 829,COLO 792,WM451Lu
veliparib,84.3,46.2,85.7,79.6,-
perifosine,104,93.1,70.7,95.8,-
midostaurin,83.5,47.5,97.4,79.5,-
nilutamide,98.9,72.0,105,93.6,-
gemcitabine,65.6,82.4,64.9,79.5,-
MK-1775,76.2,61.9,74.5,73.8,-
FH535,93.0,93.5,99.2,85.0,114
CP-690550,107,102,100,87.7,-
docetaxel,73.9,63.8,44.3,21.2,-
CX-4945,111,63.0,50.0,92.6,-
SNS-032,72.6,59.6,94.1,82.5,-
BI-D1870,78.9,72.2,92.6,76.6,-
PF-04217903,94.2,72.4,98.0,88.6,-
ZM336372,92.4,95.8,133,123,-
PD173074,74.8,64.2,121,103,-
pioglitazone,87.2,59.3,106,92.0,-
Src-I1,93.4,97.1,105,63.7,-
OSU-03012,86.9,71.2,65.7,74.7,-
SU6656,84.1,57.5,83.4,58.7,-
sunitinib,71.2,62.1,156,61.5,-
pazopanib,94.9,80.2,69.0,104,-
vorinostat,81.8,55.9,70.1,73.0,-
GW2580,82.7,69.1,77.5,92.9,-
FK866,105,20.7,60.6,36.2,-
GSK650394,91.6,42.6,83.2,85.2,-
NVP-BEZ235,87.4,51.0,89.2,51.2,-
everolimus,80.6,155,87.6,61.2,-
L-779450,-,77.7,59.3,101,-
PLX4720,90.5,97.6,86.8,120,-
GW441756,86.7,65.3,111,84.6,-

Once more, the final 3:

Second drug,C32,COLO 800,COLO 829,COLO 792,WM451Lu
L-779450,-,77.7,59.3,101,-
PLX4720,90.5,97.6,86.8,120,-
GW441756,86.7,65.3,111,84.6,-